Results on one molecule are retold here after patent US20220074941A1, “HSP90 COMBINATION THERAPY” (Sloan-Kettering Institute for Cancer Research, priority 2011, published 2022).

This series concerns Hsp90 complexes in K562 cell extract. The series can be described thus: Nano-LC-MS/MS of PU-beads pull-downs. Type of series: binding. How it is done:
Protein cargo isolated from cell lysate with PU-beads or control-beads was subjected to proteomic analysis by nano liquid chromatography coupled to tandem mass spectrometry (nano LC-MS/MS). Initial protein identification was performed using the Mascot search engine, and was further evaluated using Scaffold Proteome Software (Tables 5a-d).
Lysates prepared as mentioned above were first pre-cleaned by incubation with control beads overnight at 4° C. […] Beads were washed with lysis buffer, proteins eluted by boiling in 2% SDS, separated on a denaturing gel and Coomassie stained according to manufacturer's procedure (Biorad). […] Analyses of the batch purified pools were done using a QSTAR-Elite hybrid quadrupole time-of-flight mass spectrometer (QTof MS) (AB/MDS Sciex), equipped with a nano spray ion source. Peptide mixtures (in 20 μL) are loaded onto a trapping guard column (0.3×5-mm PepMap C18 100 cartridge from LC Packings) using an Eksigent nano MDLC system (Eksigent Technologies, Inc) at a flow rate of 20 μL/min. […] Electrospray ionization (ESI) needle voltage was set at about 1800 V. The mass analyzer is operated in automatic, data-dependent MS/MS acquisition mode, with the threshold set to 10 counts per second of doubly or triply charged precursor ions selected for fragmentation scans. Survey scans of 0.25 sec are recorded from 400 to 1800 amu; up to 3 MS/MS scans are then collected sequentially for the selected precursor ions, recording from 100 to 1800 amu. The collision energy is automatically adjusted in accordance with the m/z value of the precursor ions selected for MS/MS. Selected precursor ions are excluded from repeated selection for 60 sec after the end of the corresponding fragmentation duty cycle. […] One missed tryptic cleavage site was allowed, precursor ion mass tolerance=0.4 Da fragment ion mass tolerance=0.4 Da, protein modifications were allowed for Met-oxide, Cys-acrylamide and N-terminal acetylation. MudPit scoring was typically applied with ‘require bold red’ activated, and using significance threshold score p<0.05. Unique peptide counts (or ‘spectral counts’) and percent sequence coverages for all identified proteins were exported to Scaffold Proteome Software (version 2_06_01, www.proteomesoftware.com) for further bioinformatic analysis (Table 5a). Using output from Mascot, Scaffold validates, organizes, and interprets mass spectrometry data, allowing more easily to manage large amounts of data, to compare samples, and to search for protein modifications.

B1: Telomere length regulation protein TEL2 homolog (protein, UniProt Q9Y4R8 1-837, looked up)
Telomere length regulation …: MEPAPSEVRLAVREAIHALSSSEDGGHIFCTLESLKRYLGEMEPPALPREKEEFASAHFSPVLRCLASRLSPAWLELLPHGRLEELWASFFLEGPADQAFLVLMETIEGAAGPSFRLMKMARLLARFLREGRLAVLMEAQCRQQTQPGFILLRETLLGKVVALPDHLGNRLQQENLAEFFPQNYFRLLGEEVVRVLQAVVDSLQGGLDSSVSFVSQVLGKACVHGRQQEILGVLVPRLAALTQGSYLHQRVCWRLVEQVPDRAMEAVLTGLVEAALGPEVLSRLLGNLVVKNKKAQFVMTQKLLFLQSRLTTPMLQSLLGHLAMDSQRRPLLLQVLKELLETWGSSSAIRHTPLPQQRHVSKAVLICLAQLGEPELRDSRDELLASMMAGVKCRLDSSLPPVRRLGMIVAEVVSARIHPEGPPLKFQYEEDELSLELLALASPQPAGDGASEAGTSLVPATAEPPAETPAEIVDGGVPQAQLAGSDSDLDSDDEFVPYDMSGDRELKSSKAPAYVRDCVEALTTSEDIERWEAALRALEGLVYRSPTATREVSVELAKVLLHLEEKTCVVGFAGLRQRALVAVTVTDPAPVADYLTSQFYALNYSLRQRMDILDVLTLAAQELSRPGCLGRTPQPGSPSPNTPCLPEAAVSQPGSAVASDWRVVVEERIRSKTQRLSKGGPRQGPAGSPSRFNSVAGHFFFPLLQRFDRPLVTFDLLGEDQLVLGRLAHTLGALMCLAVNTTVAVAMGKALLEFVWALRFHIDAYVRQGLLSAVSSVLLSLPAARLLEDLMDELLEARSWLADVAEKDPDEDCRTLALRALLLLQRLKNRLLPPASP
For the molecule B1, the “Matched Peptides by Fraction JA04” value (PU-beads pull-down, Run1, gel size cut 80-110) is given as 25. Moreover, where the note is “PU-beads pull-down, Run2, gel size cut 80-110”, the “Matched Peptides by Fraction JA11” value is on record as 20. For the same molecule, the MAXIMUM matched peptides (PU-beads pull-down, maximum over fractions JA01-JA14) is 25. The molecule also had a Total fmol (protein isolated in PU-beads pull-downs, Waters Xevo QTof MS) of 7.6607 fmol.
